Assay results: PubChem BioAssay AID504467 (National Center for Advancing Translational Sciences (NCATS), 2011)
Out of some 330,000 compounds screened, about 7,700 (2.3%) were called active. The inconclusive results got no clear call from the source; some entries with a clear call stand among them for comparison. The call rests on the fitted dose curve; in most records, active means well fitted inhibition curve with a large enough effect; inconclusive means small, poorly fitted or top-dose-only effect, or effect the other way; inactive means flat fitted curve, though single readings scatter. Potencies of inconclusive entries are doubtful fits and often do not repeat.

experiment: qHTS screen for small molecules that inhibit ELG1-dependent DNA repair in human embryonic kidney (HEK293T) cells expressing luciferase-tagged ELG1; conditions: HEK293T ELG1-luciferase reporter, luminescence, 16 h, DNA damage induced by 5-fluorouridine; series mostly up to 46.1 µM; further: nearly all actives have a fitted effect of over 55% in size
How it was run: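 Cells (2,000 per well) received 5-fluorouridine plus test compound or DMSO and were incubated 16 hr at 37 °C, 5% CO2. Luciferase activity was read by luminescence 30 min after ONE-Glo addition; signal suppression marked inhibition of damage-induced ELG1 function.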
Potency means the concentration at half of the fitted maximal effect.

Structure (SMILES) | Potency
CC(/C=N/NC(=O)c1cc(-c2ccncc2)nc2ccccc12)=C\c1ccco1 | inconclusive: 29.1 µM [activator, single point]
COCCNC(=O)c1cc(-c2ccc3c(c2)OCO3)on1 | inconclusive: 3.66 µM [activator, full curve]
Cc1ccc(NC(=O)c2cccc(C(=O)Nc3ccc(C)c(C)c3)n2)cc1C | inactive
CCCOc1ccc(/C=N/NC(=O)c2ccc(Cn3cc([N+](=O)[O-])cn3)o2)cc1 | inconclusive: 16.4 µM [activator, partial curve]
CCn1c(SCC(=O)NC2CCCCC2)nnc1-c1cccnc1 | inactive
CCN1C(=O)[C@H]2[C@@H](c3ccc(C)cc3)N3C(=O)N(c4cccc(Br)c4)C(=O)[C@@]3(CC)[C@H]2C1=O | inconclusive: 3.16 µM [activator, single point]
COC(=O)CSC1=C(C#N)C(c2ccsc2)CC(=O)N1 (stereo not drawn) | inconclusive: 23.1 µM [inhibitor, partial curve, poor fit]
COc1ccc(C)cc1C1=Nc2ccccc2C1(C)C | inactive
COc1ccc(NC(=O)c2cc3ccccc3cc2OC)cc1OC | inactive
COc1ccc(NS(=O)(=O)c2cc(NC(=O)c3ccc(Cl)cc3)ccc2N2CCOCC2)cc1 | active: 9.2 µM
CCc1ccccc1NC(=O)Cn1nc(C(F)(F)F)cc1C1CC1 | inactive
COc1ccc(Nc2nc3ccccc3nc2NS(=O)(=O)c2cccs2)cc1 | inactive
CCCCC1=CC2=C(c3ccco3)C(=O)C(C)(OC(=O)c3ccc(OC)cc3)C(=O)C2=CN1Cc1ccccc1 (stereo not drawn) | inactive
CCN(CC)S(=O)(=O)c1ccc(N2CCOCC2)c(NC(=O)c2cc([N+](=O)[O-])ccc2Cl)c1 | inconclusive: 29.1 µM [inhibitor, single point]
O=C(Nc1ccc(F)cc1)N(CCCN1CCOCC1)Cc1cc2cc3c(cc2[nH]c1=O)OCCO3 | inconclusive: 0.631 µM [activator, single point]
Cc1ccc(S(=O)(=O)N2CCOCC2)cc1C(=O)NC1CCCC1 | inactive
CC(C)(C)c1ccc(C(=O)CSc2nc3ccccc3c(=O)[nH]2)cc1 | inactive
O=C(Nc1ccc(N2CCOCC2)c(Cl)c1)C1CCCCC1 | active: 20.6 µM
CCOc1ccc(-n2c(N)c(C(=O)NCc3ccco3)c3nc4ccccc4nc32)cc1 | inactive
CCNc1nc(NCC)nc(SCCOC(=O)COc2ccc(Cl)cc2Cl)n1 | inconclusive: 18.4 µM [activator, partial curve, poor fit]
O=Cc1ccc(N2CCCC2)c(F)c1 | inconclusive: 29.1 µM [activator, partial curve, poor fit]
Cc1c(NC(=O)/C(C#N)=C/c2ccc(-c3ccc(Cl)c(Cl)c3)o2)c(=O)n(-c2ccccc2)n1C | active: 20.6 µM
O=[N+]([O-])c1ccccc1NCCNc1ncc(C(F)(F)F)cc1Cl | inconclusive: 20.6 µM [activator, partial curve]
COc1ccc(N2CCN(CCNC(=O)Nc3cc(Cl)ccc3Cl)CC2)cc1 | inconclusive: 23.1 µM [activator, partial curve, poor fit]
O=C(Nc1ccccc1Br)c1cc[n+]([O-])cc1 | inactive

Structure (SMILES) | Potency
Cc1noc(C)c1COc1ccc(C(=O)N2CCN(S(=O)(=O)c3cccc(F)c3)CC2)cc1 | inconclusive: 25.9 µM [inhibitor, single point]
Cc1cccc2c3nc4ccccc4nc3n(C)c12 | inactive
CCN(c1cccc(C)c1)S(=O)(=O)c1cc2c3c(c1)CCN3C(=O)CC2 | inactive
COc1ccc(-c2cn[nH]c2-c2ccc(OC)cc2)cc1 | inconclusive: 18.3 µM [inhibitor, partial curve]
O=C(COC(=O)c1ccc(F)cc1)Nc1cc(S(=O)(=O)N2CCOCC2)ccc1N1CCCC1 | inactive
O=C(O)c1cccc(S(=O)(=O)Nc2ccc(-c3ccccc3)cc2)c1 | inconclusive: 18.3 µM [activator, partial curve]
C/C(=N\NC(=O)c1ccc(Br)cc1)C1C(=O)c2ccccc2C1=O | inactive
COc1ccc(Nc2nnc(SCc3cc(=O)n4ccsc4n3)s2)cc1 | inactive
COc1ccc(-c2nc(CS(=O)CC(=O)NCCCN3CCCC3)c(C)o2)cc1OC (stereo not drawn) | inconclusive: 0.231 µM [activator, single point]
O=C(N/N=C/c1c(Cl)cccc1Cl)c1ccc(F)cc1 | inactive
COCCN(C(=O)CCCc1nc2ccccc2s1)c1c(N)n(CC(C)C)c(=O)[nH]c1=O | inactive
CC1CCCCC1N=CC1=C(O)CC(C)(C)CC1=O (stereo not drawn) | inconclusive: 18.4 µM [activator, single point]
COC(=O)c1c(NC(=O)c2ccco2)sc(C)c1C | inactive
Cc1nc(CC(=O)NNS(=O)(=O)c2ccc3ccccc3c2)cs1 | inconclusive: 16.4 µM [activator, partial curve, poor fit]
COC(=O)CC1C(=O)NCCN1C(=O)CSc1nc2ccccc2o1 (stereo not drawn) | inactive
CCN(CC)c1ccc(NS(=O)(=O)c2ccc3c(c2)oc(=O)n3C)c(C)c1 | inconclusive: 18.4 µM [inhibitor, single point]
CCCCOC(=O)Nc1nc(CC(=O)OCC)cs1 | inconclusive: 16.4 µM [activator, partial curve, poor fit]
Cc1c(Cl)cccc1NC(=O)CC1Oc2ccccc2NC1=O (stereo not drawn) | inconclusive: 29.1 µM [activator, single point]
Cc1ccc2oc(C(=O)NCCCN3CCOCC3)c(C)c2c1 | inconclusive: 11.6 µM [activator, partial curve]
CS(=O)(=O)N(CC(=O)N1CCCC1)Cc1ccc(F)cc1 | inactive
S=c1[nH]c(-c2cccs2)cn1-c1ccccc1 | inconclusive: 23.1 µM [activator, single point]
COc1ccc(NC(=O)CSc2nc3ccccc3c(=O)n2CCC(=O)N2CCCCC2)cc1 | inconclusive: 13 µM [inhibitor, partial curve]
N#Cc1c(N)nc(SCc2ccncc2)c(C#N)c1-c1cccs1 | active: 5.17 µM
CCOC(=O)CN1NC2(CCC(C(C)(C)C)CC2)NC1=S (stereo not drawn) | inactive
O=C(O)c1ccc2c(=O)n3c(nc2c1)/C(=C/c1cccc(O)c1)CC3 | inactive

Structure (SMILES) | Potency
CC(C)(C)C1CCC(=O)N(CCSc2ccccc2)CC1 (stereo not drawn) | inconclusive: 4.11 µM [activator, partial curve]
Cc1c(C=O)c2ccccc2n1CC(=O)N1CCc2ccccc2C1 | inconclusive: 10.3 µM [inhibitor, partial curve, poor fit]
O=C(Cn1cc([N+](=O)[O-])nc1[N+](=O)[O-])N1CCN(c2ccccc2)CC1 | inconclusive: 25.9 µM [inhibitor, single point]
O=C(C[n+]1ccc(-c2cc(C(=O)Nc3cccc(C(F)(F)F)c3)c3ccccc3n2)cc1)c1cccc([N+](=O)[O-])c1 | inactive
O=C(O)CCc1ccc(-c2ccc(Cl)cc2)n1CCC(=O)O | inactive
Cc1ccc(N2CC(c3nc4ccccc4n3C)CC2=O)cc1C (stereo not drawn) | inactive
Cc1ccc(O)c(Nc2nc(-c3ccccc3)nc3ccccc23)c1 | inconclusive: 35.5 µM [inhibitor, single point]
Cc1ccc2[nH]c(C(=O)N/N=C/c3ccccc3C(=O)O)c(-c3ccccc3)c2c1 | inconclusive: 14.6 µM [inhibitor, partial curve, poor fit]
C=CCSc1ncc(C#N)c(N)n1 | inconclusive: 18.4 µM [activator, single point]
O=C(c1[nH]ncc1-c1ccccc1)C1CO1 (stereo not drawn) | inconclusive: 29.1 µM [activator, single point]
Cc1ccc2nsnc2c1S(=O)(=O)N(Cc1ccco1)Cc1cc2cccc(C)c2[nH]c1=O | inconclusive: 0.58 µM [inhibitor, single point]
COC(=O)[C@H](CCSC)NC(=O)Cn1ccc(N)nc1=O | inconclusive: 6.51 µM [inhibitor, single point]
CCN(Cc1nc2ccccc2c(=O)[nH]1)C(=O)c1cccc(OCc2c(C)noc2C)c1 | inconclusive: 20.6 µM [inhibitor, partial curve, poor fit]
COc1cc(OC)c(-c2nc(-c3ccncc3)no2)cc1OC | inconclusive: 25.9 µM [inhibitor, partial curve]
Cc1ccc(/C(COc2ccccc2O)=N\O)cc1 | inconclusive: 1.84 µM [activator, partial curve]
O=C(OCc1nnc(-c2ccccc2)o1)c1ccccc1 | inactive
Cc1cccc(N/N=C/c2ccc(C)s2)c1 | inconclusive: 9.2 µM [activator, partial curve]
COc1ccc2nc(/N=C/c3cccc(OC)c3O)sc2c1 | inconclusive: 25.9 µM [activator, single point]
Cc1cc(C)cc(NC(=O)C(Sc2ncnc3ccccc23)c2ccccc2)c1 (stereo not drawn) | inactive
O=C(COC(=O)Cn1cc(C(F)(F)F)ccc1=O)Nc1ccccc1 | inconclusive: 23.1 µM [activator, single point]
COc1cccc(NC(=O)N(C2CCCCC2)C(C)c2cccs2)c1 (stereo not drawn) | inactive
CCCC(=O)Nc1ccc(NC(=O)c2ccco2)cn1 | inconclusive: 20.6 µM [activator, partial curve]
O=C(NC(NC(=S)Nc1ccccc1)C(Cl)(Cl)Cl)c1cccc(Cl)c1 (stereo not drawn) | inconclusive: 29.1 µM [inhibitor, partial curve, poor fit]

16 entries from above in a different format.
Structure (SMILES)	Potency
Cc1c(NC(=O)/C(C#N)=C/c2ccc(-c3ccc(Cl)c(Cl)c3)o2)c(=O)n(-c2ccccc2)n1C	active: 20.6 µM
O=[N+]([O-])c1ccccc1NCCNc1ncc(C(F)(F)F)cc1Cl	inconclusive: 20.6 µM [activator, partial curve]
COc1ccc(N2CCN(CCNC(=O)Nc3cc(Cl)ccc3Cl)CC2)cc1	inconclusive: 23.1 µM [activator, partial curve, poor fit]
O=C(Nc1ccccc1Br)c1cc[n+]([O-])cc1	inactive
Cc1noc(C)c1COc1ccc(C(=O)N2CCN(S(=O)(=O)c3cccc(F)c3)CC2)cc1	inconclusive: 25.9 µM [inhibitor, single point]
Cc1cccc2c3nc4ccccc4nc3n(C)c12	inactive
CCN(c1cccc(C)c1)S(=O)(=O)c1cc2c3c(c1)CCN3C(=O)CC2	inactive
COc1ccc(-c2cn[nH]c2-c2ccc(OC)cc2)cc1	inconclusive: 18.3 µM [inhibitor, partial curve]
O=C(COC(=O)c1ccc(F)cc1)Nc1cc(S(=O)(=O)N2CCOCC2)ccc1N1CCCC1	inactive
O=C(O)c1cccc(S(=O)(=O)Nc2ccc(-c3ccccc3)cc2)c1	inconclusive: 18.3 µM [activator, partial curve]
C/C(=N\NC(=O)c1ccc(Br)cc1)C1C(=O)c2ccccc2C1=O	inactive
COc1ccc(Nc2nnc(SCc3cc(=O)n4ccsc4n3)s2)cc1	inactive
COc1ccc(-c2nc(CS(=O)CC(=O)NCCCN3CCCC3)c(C)o2)cc1OC (stereo not drawn)	inconclusive: 0.231 µM [activator, single point]
O=C(N/N=C/c1c(Cl)cccc1Cl)c1ccc(F)cc1	inactive
COCCN(C(=O)CCCc1nc2ccccc2s1)c1c(N)n(CC(C)C)c(=O)[nH]c1=O	inactive
CC1CCCCC1N=CC1=C(O)CC(C)(C)CC1=O (stereo not drawn)	inconclusive: 18.4 µM [activator, single point]
